The assay addresses T1, CED-4 apoptosome (C. elegans, UniProt P30429 1-549).
T1 construct: CED-4, C. elegans; also called CED-4b; CED-4c; source: recombinantly expressed, obtained as previously reported (Qi et al, 2010), purified (SEC)
T1 sequence: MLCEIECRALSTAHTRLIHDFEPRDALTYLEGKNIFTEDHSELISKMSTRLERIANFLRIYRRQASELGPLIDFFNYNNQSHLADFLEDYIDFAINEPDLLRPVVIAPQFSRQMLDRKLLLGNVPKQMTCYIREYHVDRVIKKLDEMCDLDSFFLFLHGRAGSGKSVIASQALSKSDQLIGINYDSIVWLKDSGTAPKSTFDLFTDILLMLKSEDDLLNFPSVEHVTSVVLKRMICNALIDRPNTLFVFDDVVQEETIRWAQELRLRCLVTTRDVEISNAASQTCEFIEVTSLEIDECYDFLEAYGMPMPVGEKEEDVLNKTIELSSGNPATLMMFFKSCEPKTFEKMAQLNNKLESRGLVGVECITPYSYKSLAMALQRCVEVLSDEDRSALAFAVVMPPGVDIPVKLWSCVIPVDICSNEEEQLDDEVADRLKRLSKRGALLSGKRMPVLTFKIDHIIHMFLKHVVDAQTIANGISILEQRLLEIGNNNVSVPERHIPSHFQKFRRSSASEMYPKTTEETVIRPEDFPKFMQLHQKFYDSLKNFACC
Briefly: cryo-EM structure; holoenzyme: ternary complex of CED-4, CED-3 CARD and CED-3 catalytic domain, assembled at 4°C for 1 h, purified by SEC in 20 mM HEPES pH 7.5, 10 mM KCl, 1.5 mM MgCl2, 1 mM EDTA, 1 mM DTT; about 2 uM; both purified. In general terms: SEC sorts molecules by how far they enter the pores of the column.

These are yes or no findings as the source states them, for the method shown. Binding can be weak; no strength is given.

In the case of “CED-3 catalytic domain (in the holoenzyme) (C. elegans) (domain or fragment)”, the binding result is listed as “binds”.
